Source: the supplement of paper PMC8497498
± gives the standard deviation of the averaged measurements. The list shows a part of the results. The data scatter; read single values as rough.

How the values were obtained:
Details in all cases: 10 µM
[1] = tested on: Plasmodium vivax liver stage (primary human hepatocyte culture); experiment: hypnozoite quantity inhibition (% inhibition); higher = more active against hypnozoites
[2] = tested on: Plasmodium vivax liver stage (primary human hepatocyte culture); experiment: schizont net growth area inhibition (% inhibition); higher = more active against liver schizonts
[3] = tested on: primary human hepatocytes; experiment: hepatic nuclei reduction relative to DMSO (100 - % of negative control); higher = more toxic to hepatocytes
[4] = assay mode: Prophylactic (treated before or shortly after infection), fixed day 6 post-infection
[5] = assay mode: Radical Cure (treated from day 5 post-infection for 3 days), fixed day 8 post-infection

Row | SMILES | hypnozoite quantity inhibition [1, 4] | hypnozoite quantity inhibition [1, 5] | schizont net growth area inhibition [2, 4] | schizont net growth area inhibition [2, 5] | hepatic nuclei reduction [3, 4] | hepatic nuclei reduction [3, 5]
1 | CCOc1ccc(C2N(C)c3ccccc3N2C)cc1 | 12.8 | 61.1 | -114 | -31.5 | 14% | 0%
2 | OC[C@H]1O[C@@H](n2c3ccc(Cl)cc3c3c(-c4cc5ccccc5o4)ncnc32)C(O)[C@H]1O (some centres undefined) | 18 | -15 | -53.1 | -5.1 | 5% | -3%
3 | Cc1sc(NC(=O)c2ccccc2)c(C(c2cccs2)N2CCN(c3ccccc3)CC2)c1C (centres undefined) | -2 | 47.3 | -18.5 | -20.3 | -4% | -4%
4 | CC(C)N=C(N)N=C(N)Nc1ccc(Cl)cc1 | -44 | 7 | 70.5 | 65.6 | -4% | 5%
5 | O=C(NC1CCCCC1)C(c1cccs1)N(CCc1ccccc1)C(=O)c1ccco1 (centres undefined) | 15.8 | 42.8 | 13.1 | -9.5 | 1% | -4%
6 | CC1=Nc2ccc(Cl)cc2C(O)(c2ccc(C)cc2)N1CCN1CCCCC1 (centres undefined) | -34 | 31 | 3 | -13.7 | -8% | -11%
7 | COc1cccc(C(=O)Nc2ccc(-c3nc4ccccc4[nH]3)cc2)c1 | -26.6 | 33.6 | -3.2 | 23.4 | 5% | -7%
8 | O=C(NCCc1ccn(-c2ccccc2)n1)C1CCCCC1 | 12 | 4 | -5.5 | 30.6 | -9% | -4%
9 | CN(C)c1ccc(-c2nc3cc(N)ccc3[nH]2)cc1 | 79.6 | 4.7 | 88 | -17.7 | 2% | 3%
10 | COc1ccc(NC(=O)C2c3ccccc3C(=O)N(CC(C)C)C2c2cccs2)cc1Cl (centres undefined) | -5.1 | 21 | 39.6 | -5.1 | 3% | -8%
11 | Clc1ccc2c(N[C@H]3CCCC[C@@H]3Nc3ccnc4cc(Cl)ccc34)ccnc2c1 | -42 | -20 | 93.3 | 1.6 | 13% | -2%
12 | CCCCCCOC(=O)C1=C(C)NC(=O)NC1c1ccccc1F (centres undefined) | 13.9 | 10.1 | 23.1 | -23.9 | 1% | -11%
13 | NCC(=O)N1CCn2c(nc(-c3ccccc3)c2Nc2ccc3c(c2)OCO3)C1 | -9 | -48 | -85.6 | -20.2 | -2% | -3%
14 | FC(F)(F)c1cnc(Sc2nnc(-c3ccncc3)o2)c(Cl)c1 | -45 | -43 | 27.8 | -22.2 | -10% | 0%
15 | COc1ccc(C2=C(c3ccc(OC)cc3)C3(c4ccccc4)C(=O)C2(c2ccccc2)C2C(=O)N(c4ccc(C)cc4)C(=O)C23)cc1 (centres undefined) | -13.2 | 51.9 | 33.5 | -13.9 | -12% | 2%
16 | CCOC(=O)C1=C(C)N=c2sc(=Cc3cc(Cl)ccc3O)c(=O)n2C1c1ccc(OC)cc1 (centres undefined) | 23.2 | 15.3 | 11.9 | 30.6 | -3% | 13%
17 | N=C(N)c1ccc(-c2cc(-c3ccccc3)on2)cc1 | 10 | -15 | 41.4 | -54.1 | -3% | -6%
18 | N=C(N)c1ccc(OCCCCCOc2ccc(C(=N)N)cc2)cc1 | 8.5 ± 22 | 9.5 ± 64 | 59.9 ± 13 | 72.5 ± 32 | -4% | -9 ± 1.4%
19 | Cc1ccc(-c2cc3nc4c(c(O)n3n2)CCCC4)cc1 | -27.3 | 29 | -22.2 | 46.3 | -13% | -1%
20 | CCOc1ccc2c(c1)CN(Cc1ccc(Cl)cc1)CO2 | 20.2 | -8.9 | 24.3 | -136 | -1% | -9%

Row | SMILES | hypnozoite quantity inhibition [1, 4] | hypnozoite quantity inhibition [1, 5] | schizont net growth area inhibition [2, 4] | schizont net growth area inhibition [2, 5] | hepatic nuclei reduction [3, 4] | hepatic nuclei reduction [3, 5]
21 | Cc1nc(Nc2ncc(N3CCN(C)C(C)C3)c(Nc3cc(C)n(C)n3)n2)cc(C2CC2)c1F (centres undefined) | 53 | 34 | 91.4 | 87.8 | -9% | -6%
22 | Oc1c(C(Nc2ccccn2)c2cccc(Oc3ccccc3)c2)ccc2cccnc12 (centres undefined) | -11.7 | -53.4 | 96 | 10.2 | 11% | -16%
23 | O=C(Nc1ccc(CN2CCOCC2)cc1)c1ccc(-c2cc(Cl)ccc2Cl)o1 | -47.4 | 1.5 | 5.1 | -54.6 | -12% | -8%
24 | NS(=O)(=O)c1cccc(-c2ccc3ncc(N4CCOCC4)nc3c2)c1 | 92 | -80 | 102 | 77.7 | -4% | -2%
25 | COc1cccc(N2CCN(C3=Nc4c(F)cccc4[C@H](CC(=O)O)N3c3cc(C(F)(F)F)ccc3OC)CC2)c1 | 1 | -19 | -30.6 | -96.1 | -4% | -3%
26 | Cc1ccc(C)c(Cn2c(N3CCC(C(=O)NCc4cccs4)CC3)nc3ccccc32)c1 | -10.7 | -41.6 | 72.4 | -96.1 | 5% | -10%
27 | CCC[C@@H]1C[C@@H](C(=O)N[C@@H]([C@H]2O[C@H](SC)[C@H](O)[C@@H](O)[C@H]2O)[C@H](C)Cl)N(C)C1 | -22 | 23 | 24.4 | 32.7 | -6% | -3%
28 | CCCCCCc1cc2cc(-c3nc4ccccc4[nH]3)c(=Nc3ccccc3C)oc2cc1O | 24 | 7.4 | 22.7 | -62 | -1% | 0%
29 | COc1ccc(-c2nonc2NC(=O)c2cccc(C)c2)cc1OC | 3.2 | 29.2 | 14.1 | -13.8 | -8% | -10%
30 | COc1ccccc1C(=O)ON=C(N)Cc1cccc2ccccc12 | 11.4 | 7.4 | 35.6 | 19.3 | -1% | -3%
31 | OC1=C2C(=Nc3ccccc3SC2c2ccc(Br)cc2)c2ccccc21 (centres undefined) | 19 | 42.8 | 2.7 | 14.9 | 6% | -7%
32 | Cc1ccc2oc(-c3cc(NC(=O)Cc4ccccc4)ccc3Cl)nc2c1 | 13 | -7 | -16.3 | -10.3 | -2% | -2%
33 | CC(C)(C)c1ccc(O)c(CNC2CCCCC2)c1 | -21.4 | 31.3 | -32.7 | 10.6 | 0% | -9%
34 | FC(F)(F)c1nnc2ccc(Cl)nn12 | 15 | -10 | 33.6 | -0.9 | -4% | 7%
35 | Cc1cc(Nc2ccc3ccccc3c2)n2ncnc2n1 | -2 | 29 | 62.5 | 11.9 | -12% | -2%
36 | N=c1n(CCN2CCCCC2)c2ccccc2n1CC(O)c1cccc(Br)c1 (centres undefined) | -42.2 | 35.9 | 24.1 | 67.6 | -8% | 1%
37 | CN1CCN(CCCOc2ncc(Nc3ncc(-c4ccc(C(F)(F)F)c(F)c4)nc3C(N)=O)cn2)CC1 | -19 | -3 | 55.1 | 45.8 | 0% | -3%
38 | CCCCCCC[C@H]1CN[C@H](C(=O)NC(C(C)Cl)C2O[C@H](SC)[C@H](O)[C@@H](O)[C@H]2O)C1 (some centres undefined) | -29 | 47 | 26 | 75.9 | 3% | -6%
39 | O=c1nc(C=Cc2ccc(Cl)cc2)oc2ccccc12 | -28.1 | -3.1 | 9.9 | 35.7 | -6% | -3%
40 | FC(F)(F)c1cccc(CNC2CCN(CCc3ccccc3)CC2)c1 | 27.2 | -36.2 | 25.8 | -51.3 | 7% | 0%

Of the compounds above, 2 contain bromine:
Row | SMILES | hypnozoite quantity inhibition [1, 4] | hypnozoite quantity inhibition [1, 5] | schizont net growth area inhibition [2, 4] | schizont net growth area inhibition [2, 5] | hepatic nuclei reduction [3, 4] | hepatic nuclei reduction [3, 5]
31 | OC1=C2C(=Nc3ccccc3SC2c2ccc(Br)cc2)c2ccccc21 (centres undefined) | 19 | 42.8 | 2.7 | 14.9 | 6% | -7%
36 | N=c1n(CCN2CCCCC2)c2ccccc2n1CC(O)c1cccc(Br)c1 (centres undefined) | -42.2 | 35.9 | 24.1 | 67.6 | -8% | 1%

Continuation:

Row | SMILES | hypnozoite quantity inhibition [1, 4] | hypnozoite quantity inhibition [1, 5] | schizont net growth area inhibition [2, 4] | schizont net growth area inhibition [2, 5] | hepatic nuclei reduction [3, 4] | hepatic nuclei reduction [3, 5]
41 | CCOc1cccc2sc(N(Cc3cccnc3)C(=O)C3CCCCC3)nc12 | 0 | 34.6 | -22.1 | 32.2 | -5% | -1%
42 | C[C@H]1c2cccc(O)c2C(=O)C2=C(O)[C@]3(O)C(=O)C(C(N)=O)=C(O)[C@@H](N(C)C)C3[C@@H](O)C21 (some centres undefined) | -16 ± 37 | 8.1 ± 33 | 46.2 ± 12 | 27.5 ± 35 | -0.5 ± 12% | -0.333 ± 4%
43 | Cc1cccc(Nc2nc(N)c3ccccc3n2)c1 | 18.8 | 45 | -43.7 | 63.2 | 1% | -6%
44 | CNC1C(OC2C(OC3C(O)C(O)C(N=C(N)N)C(O)C3N=C(N)N)OC(C)C2(O)C=O)OC(CO)C(O)C1O (centres undefined) | 14 | -7 | -8.9 | -2.7 | 2% | 12%
45 | O=C(Nc1ccc(N2CCN(Cc3ccccc3)CC2)cc1)c1cccs1 | 16.4 | 1.9 | 25.6 | 51.4 | -7% | -8%
46 | CC(C)C(C(=O)Nc1ccc(S(=O)(=O)N(C)C)cc1)c1ccc(Cl)cc1 (centres undefined) | 11 | -23 | 32.3 | -56 | 4% | 2%
47 | CC(C)N=c1cc2n(-c3ccc(Cl)cc3)c3ccccc3nc-2cc1Nc1ccc(Cl)cc1 | -11 | -23 | -9.1 | -102 | 14% | 9%
48 | CC(C(=O)Nc1ccc2oc(-c3ccncc3)nc2c1)c1ccccc1 (centres undefined) | 31 | 1 | 27.2 | -23.7 | 1% | -14%
49 | COc1cccc(OC)c1C(=O)Nc1ccc(Cl)c(-c2nc3ccccc3s2)c1 | -83 | 7 | -18.9 | 37.5 | -12% | -2%
50 | COc1ccc(C2=NN(C3CCCCCC3)C(=O)[C@@H]3CC=CC[C@H]23)cc1OCCCCOc1ccc(-c2nn[nH]n2)cc1 | 32 | -18 | -7.3 | -106 | -1% | -1%
51 | Cc1ccc(OCCCCCCNCCO)c(C)c1 | 10.6 | 29 | 83.3 | 49.8 | -11% | 21%
52 | CC(C)(C)CC(C)(C)NCC(O)COc1ccc2c(c1)CCC2 (centres undefined) | 0.6 | 29.2 | -5 | -10 | 6% | -12%
53 | O=C(Nc1cccnc1)c1c(O)c2cccc3c2n(c1=O)CC3 | -19 | 29 | -68.1 | -47.8 | 2% | 1%
54 | FC(F)(F)c1cccc(Nc2nc(-c3ccccc3)nc3ncccc23)c1 | -2.8 | 51.9 | 43.1 | -6.4 | -13% | -6%
55 | O=C1NC(=O)[C@]2(CCOc3ccc(F)cc32)N1 | 15 | -2 | 45.7 | -10.6 | -4% | 8%
56 | O=C(Nc1ccc(F)c(-c2nc3cc(-c4ccccc4)cnc3[nH]2)c1)N1CCCC1 | -64 | 4 | 37.2 | 11.3 | -4% | -3%
57 | COC(=O)Nc1nc2cc(C(=O)c3ccccc3)ccc2[nH]1 | -96 | -31 | 90.9 | -17.7 | -7% | -1%
58 | COc1ccc(Nc2nc(NN=Cc3ccc(O)cc3)nc(Nc3ccc([N+](=O)[O-])cc3)n2)cc1 | -8.2 | 45.5 | 24.6 | -37.6 | 6% | -11%
59 | COc1ncnc(NS(=O)(=O)c2ccc(N)cc2)c1OC | -3 | 44 | -56.1 | 54.9 | -18% | -4%
